Consider nine molecules from publication doi:10.1101/2024.11.14.623596.

By UniProt entry, the sequences of proteins in these tests, tags left out. Where a name states a change or a piece, a line headed by the entry shows the natural chain unless it says otherwise. Chains listed by the source or under a name are the forms on record and can include a tag or linker.
UniProt P53995: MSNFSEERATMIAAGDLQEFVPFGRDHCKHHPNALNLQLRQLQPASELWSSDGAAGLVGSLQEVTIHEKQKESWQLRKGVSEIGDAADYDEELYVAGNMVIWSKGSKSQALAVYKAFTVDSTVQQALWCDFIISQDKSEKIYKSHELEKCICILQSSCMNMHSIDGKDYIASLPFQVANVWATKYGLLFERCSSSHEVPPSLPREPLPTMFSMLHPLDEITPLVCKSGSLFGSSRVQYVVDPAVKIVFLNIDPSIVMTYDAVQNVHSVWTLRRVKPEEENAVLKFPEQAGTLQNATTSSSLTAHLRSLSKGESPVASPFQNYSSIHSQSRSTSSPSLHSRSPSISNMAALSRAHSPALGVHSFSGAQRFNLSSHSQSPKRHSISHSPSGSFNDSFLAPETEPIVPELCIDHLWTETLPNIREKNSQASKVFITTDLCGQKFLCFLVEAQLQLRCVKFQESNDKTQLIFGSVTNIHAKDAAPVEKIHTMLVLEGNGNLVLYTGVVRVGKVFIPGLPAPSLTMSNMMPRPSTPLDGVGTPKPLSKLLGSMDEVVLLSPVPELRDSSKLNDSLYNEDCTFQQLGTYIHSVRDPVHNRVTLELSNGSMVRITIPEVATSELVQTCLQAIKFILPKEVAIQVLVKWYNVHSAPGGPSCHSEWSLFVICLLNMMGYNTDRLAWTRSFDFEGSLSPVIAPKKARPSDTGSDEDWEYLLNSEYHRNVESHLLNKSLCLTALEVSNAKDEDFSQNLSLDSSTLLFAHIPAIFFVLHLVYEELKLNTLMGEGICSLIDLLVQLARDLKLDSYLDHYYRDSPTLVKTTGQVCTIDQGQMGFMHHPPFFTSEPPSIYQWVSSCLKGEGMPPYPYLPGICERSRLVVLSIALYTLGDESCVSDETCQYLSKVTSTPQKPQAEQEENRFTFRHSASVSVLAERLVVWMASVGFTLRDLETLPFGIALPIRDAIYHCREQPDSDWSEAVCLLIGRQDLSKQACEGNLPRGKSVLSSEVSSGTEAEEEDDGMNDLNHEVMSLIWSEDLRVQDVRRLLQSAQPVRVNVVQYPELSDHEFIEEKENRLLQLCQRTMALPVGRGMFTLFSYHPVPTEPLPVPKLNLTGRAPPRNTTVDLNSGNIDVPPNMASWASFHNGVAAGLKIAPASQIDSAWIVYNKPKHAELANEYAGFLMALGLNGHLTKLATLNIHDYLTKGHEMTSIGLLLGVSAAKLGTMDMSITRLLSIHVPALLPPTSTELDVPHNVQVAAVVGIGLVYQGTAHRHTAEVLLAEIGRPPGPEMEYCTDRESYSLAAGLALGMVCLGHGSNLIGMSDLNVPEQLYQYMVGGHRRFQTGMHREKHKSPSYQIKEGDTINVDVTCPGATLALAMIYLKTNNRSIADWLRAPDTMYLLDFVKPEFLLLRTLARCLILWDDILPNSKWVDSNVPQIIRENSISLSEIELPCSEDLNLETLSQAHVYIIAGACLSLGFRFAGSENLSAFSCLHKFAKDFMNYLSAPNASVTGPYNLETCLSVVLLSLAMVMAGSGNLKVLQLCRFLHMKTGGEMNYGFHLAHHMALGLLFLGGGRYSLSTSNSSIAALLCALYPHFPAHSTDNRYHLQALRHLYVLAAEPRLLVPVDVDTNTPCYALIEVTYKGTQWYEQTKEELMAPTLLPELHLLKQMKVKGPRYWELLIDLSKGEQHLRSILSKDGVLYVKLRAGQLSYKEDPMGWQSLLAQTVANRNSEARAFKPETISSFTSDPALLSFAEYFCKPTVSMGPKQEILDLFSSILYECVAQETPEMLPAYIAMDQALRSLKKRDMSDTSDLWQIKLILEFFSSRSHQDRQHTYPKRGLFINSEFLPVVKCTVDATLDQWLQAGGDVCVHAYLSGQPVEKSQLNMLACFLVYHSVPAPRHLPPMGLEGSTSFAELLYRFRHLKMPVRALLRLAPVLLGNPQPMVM
UniProt Q91Z96: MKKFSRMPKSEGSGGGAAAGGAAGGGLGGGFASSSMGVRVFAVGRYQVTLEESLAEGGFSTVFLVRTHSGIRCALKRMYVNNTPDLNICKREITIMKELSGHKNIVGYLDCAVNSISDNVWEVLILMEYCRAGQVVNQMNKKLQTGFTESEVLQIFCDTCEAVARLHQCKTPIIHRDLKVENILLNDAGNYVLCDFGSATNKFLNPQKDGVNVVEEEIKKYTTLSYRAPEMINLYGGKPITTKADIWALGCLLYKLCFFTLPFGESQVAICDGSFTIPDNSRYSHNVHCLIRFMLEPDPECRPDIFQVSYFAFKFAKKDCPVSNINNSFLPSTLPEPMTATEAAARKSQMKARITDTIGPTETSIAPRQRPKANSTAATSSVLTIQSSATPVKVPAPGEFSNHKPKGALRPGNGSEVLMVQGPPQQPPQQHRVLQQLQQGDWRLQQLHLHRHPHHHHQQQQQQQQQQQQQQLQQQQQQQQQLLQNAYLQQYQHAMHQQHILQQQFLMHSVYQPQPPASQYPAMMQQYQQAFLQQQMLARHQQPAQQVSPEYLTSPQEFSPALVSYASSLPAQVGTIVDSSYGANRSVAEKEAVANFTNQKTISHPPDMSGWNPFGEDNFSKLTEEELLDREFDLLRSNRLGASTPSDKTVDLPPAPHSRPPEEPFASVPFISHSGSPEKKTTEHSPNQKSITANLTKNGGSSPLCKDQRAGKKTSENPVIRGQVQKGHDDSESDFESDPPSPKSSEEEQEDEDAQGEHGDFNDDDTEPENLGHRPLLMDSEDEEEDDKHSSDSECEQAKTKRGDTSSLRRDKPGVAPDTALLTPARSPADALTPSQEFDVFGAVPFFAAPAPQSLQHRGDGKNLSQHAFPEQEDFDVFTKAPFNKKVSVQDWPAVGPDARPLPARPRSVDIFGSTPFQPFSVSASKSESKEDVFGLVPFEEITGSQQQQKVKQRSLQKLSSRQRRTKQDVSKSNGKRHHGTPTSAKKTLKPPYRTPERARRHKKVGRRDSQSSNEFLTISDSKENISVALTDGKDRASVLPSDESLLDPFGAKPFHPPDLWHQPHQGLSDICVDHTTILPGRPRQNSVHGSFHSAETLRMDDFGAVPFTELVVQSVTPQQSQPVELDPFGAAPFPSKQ
UniProt Q8BWW4: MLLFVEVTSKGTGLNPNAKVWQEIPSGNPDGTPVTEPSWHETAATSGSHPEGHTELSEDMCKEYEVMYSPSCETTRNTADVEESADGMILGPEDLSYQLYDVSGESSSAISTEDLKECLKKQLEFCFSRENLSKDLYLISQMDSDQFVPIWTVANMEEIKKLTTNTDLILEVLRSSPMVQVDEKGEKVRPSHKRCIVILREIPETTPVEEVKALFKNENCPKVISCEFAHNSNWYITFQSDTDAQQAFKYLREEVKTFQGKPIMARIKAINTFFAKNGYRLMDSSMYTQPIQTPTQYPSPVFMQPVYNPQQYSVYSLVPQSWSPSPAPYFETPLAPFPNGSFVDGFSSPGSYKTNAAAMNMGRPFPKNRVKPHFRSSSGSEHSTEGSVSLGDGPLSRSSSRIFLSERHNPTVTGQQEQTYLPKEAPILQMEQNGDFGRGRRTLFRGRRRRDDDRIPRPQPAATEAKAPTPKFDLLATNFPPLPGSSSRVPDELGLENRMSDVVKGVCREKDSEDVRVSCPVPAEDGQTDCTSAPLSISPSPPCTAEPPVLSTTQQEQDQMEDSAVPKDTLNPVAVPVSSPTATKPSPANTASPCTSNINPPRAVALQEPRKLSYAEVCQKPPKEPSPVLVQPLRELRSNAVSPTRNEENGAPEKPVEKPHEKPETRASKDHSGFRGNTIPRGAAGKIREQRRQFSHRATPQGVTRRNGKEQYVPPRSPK
LARP4 (Q8BWW4, form named): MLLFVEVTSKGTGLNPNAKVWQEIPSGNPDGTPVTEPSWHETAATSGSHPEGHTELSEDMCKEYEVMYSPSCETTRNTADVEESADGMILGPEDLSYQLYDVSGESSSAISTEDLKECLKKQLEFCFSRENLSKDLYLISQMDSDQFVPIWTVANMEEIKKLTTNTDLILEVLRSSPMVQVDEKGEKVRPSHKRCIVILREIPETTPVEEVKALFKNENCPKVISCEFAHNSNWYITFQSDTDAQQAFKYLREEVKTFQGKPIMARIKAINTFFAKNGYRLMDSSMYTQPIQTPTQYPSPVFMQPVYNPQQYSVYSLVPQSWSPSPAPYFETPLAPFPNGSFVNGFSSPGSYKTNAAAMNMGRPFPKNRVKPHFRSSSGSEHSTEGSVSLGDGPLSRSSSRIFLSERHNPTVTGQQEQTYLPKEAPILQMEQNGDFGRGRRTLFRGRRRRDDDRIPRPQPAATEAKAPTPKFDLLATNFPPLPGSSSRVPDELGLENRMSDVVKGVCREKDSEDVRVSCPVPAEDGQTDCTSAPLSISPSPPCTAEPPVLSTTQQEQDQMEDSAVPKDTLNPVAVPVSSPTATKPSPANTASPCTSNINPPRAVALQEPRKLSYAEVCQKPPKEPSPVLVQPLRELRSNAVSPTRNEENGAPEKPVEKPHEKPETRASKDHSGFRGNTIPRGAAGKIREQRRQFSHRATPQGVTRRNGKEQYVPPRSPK
UniProt Q6A0A2: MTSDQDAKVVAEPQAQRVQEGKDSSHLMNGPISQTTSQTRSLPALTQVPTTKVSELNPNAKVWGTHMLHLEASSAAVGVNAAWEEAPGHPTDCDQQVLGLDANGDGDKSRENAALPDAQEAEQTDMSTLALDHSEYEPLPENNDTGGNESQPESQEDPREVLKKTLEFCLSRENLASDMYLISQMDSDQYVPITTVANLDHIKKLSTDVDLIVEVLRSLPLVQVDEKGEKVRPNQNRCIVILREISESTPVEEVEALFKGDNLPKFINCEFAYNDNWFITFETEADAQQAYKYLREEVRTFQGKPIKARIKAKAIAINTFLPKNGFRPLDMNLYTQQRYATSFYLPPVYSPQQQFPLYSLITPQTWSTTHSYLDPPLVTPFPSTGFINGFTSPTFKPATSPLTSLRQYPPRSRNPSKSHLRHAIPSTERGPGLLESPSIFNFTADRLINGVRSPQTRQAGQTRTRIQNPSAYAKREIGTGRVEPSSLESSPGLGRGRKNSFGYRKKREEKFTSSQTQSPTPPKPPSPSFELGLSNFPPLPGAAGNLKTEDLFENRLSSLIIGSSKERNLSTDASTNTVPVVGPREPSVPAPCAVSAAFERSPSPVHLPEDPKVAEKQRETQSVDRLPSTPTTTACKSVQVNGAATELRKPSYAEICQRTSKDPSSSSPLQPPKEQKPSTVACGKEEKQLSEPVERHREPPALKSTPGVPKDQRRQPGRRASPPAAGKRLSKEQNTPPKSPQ
UniProt P60335: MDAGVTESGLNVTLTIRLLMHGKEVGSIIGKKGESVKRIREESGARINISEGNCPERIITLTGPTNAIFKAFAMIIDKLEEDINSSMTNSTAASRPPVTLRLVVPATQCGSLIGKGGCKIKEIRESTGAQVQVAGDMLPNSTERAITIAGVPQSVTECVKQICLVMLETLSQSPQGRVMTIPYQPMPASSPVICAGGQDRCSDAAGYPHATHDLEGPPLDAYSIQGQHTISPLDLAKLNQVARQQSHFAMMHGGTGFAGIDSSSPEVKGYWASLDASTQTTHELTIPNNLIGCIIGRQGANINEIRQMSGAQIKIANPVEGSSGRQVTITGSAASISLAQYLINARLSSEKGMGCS
UniProt Q61990: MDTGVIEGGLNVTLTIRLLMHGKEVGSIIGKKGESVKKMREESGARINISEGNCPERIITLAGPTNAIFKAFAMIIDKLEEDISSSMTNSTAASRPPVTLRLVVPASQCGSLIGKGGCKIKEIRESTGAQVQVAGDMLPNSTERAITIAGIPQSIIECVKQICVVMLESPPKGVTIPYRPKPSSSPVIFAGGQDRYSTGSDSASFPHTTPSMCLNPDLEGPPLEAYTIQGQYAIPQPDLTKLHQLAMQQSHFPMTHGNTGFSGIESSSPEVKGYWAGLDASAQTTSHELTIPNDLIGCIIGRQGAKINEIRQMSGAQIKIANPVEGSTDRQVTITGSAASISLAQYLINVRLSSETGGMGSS

Test [1] addresses T1, TENT5C-EGFP (Tent5c-EGFP knock-in) (mouse (endogenous in fetal liver erythroblasts)) (UniProt Q5SSF7).
T1 sequence: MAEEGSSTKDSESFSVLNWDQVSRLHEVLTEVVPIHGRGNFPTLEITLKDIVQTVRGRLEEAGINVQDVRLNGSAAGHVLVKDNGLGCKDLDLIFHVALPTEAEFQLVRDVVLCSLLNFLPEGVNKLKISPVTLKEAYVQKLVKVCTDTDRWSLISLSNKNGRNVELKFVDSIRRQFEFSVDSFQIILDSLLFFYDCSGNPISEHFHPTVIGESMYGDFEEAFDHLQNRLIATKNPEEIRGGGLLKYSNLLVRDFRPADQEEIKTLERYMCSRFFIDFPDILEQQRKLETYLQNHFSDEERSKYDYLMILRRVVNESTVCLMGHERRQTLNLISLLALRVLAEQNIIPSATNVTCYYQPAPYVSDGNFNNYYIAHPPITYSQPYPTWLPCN
As to the kind of experiment: proximity labelling.

For test [2], the target named is T1, TENT5C-EGFP (Tent5c-EGFP knock-in) (mouse (endogenous in fetal liver erythroblasts)). As to the kind of experiment: proximity labelling. The source holds these as a separate data set.

Read-outs that look alike come from different tables or passages of the source. Results are given in words; binding and its absence hold for the method and conditions named. In cells and extracts the contact can be indirect. These calls come from enrichment with a bait or labelling near it, and not all partners need be listed. For part of these data: No binding means not detected with the bait. Tags and fused reporters may be left off the sequences shown.

Consider Anapc1 (from UniProt P53995 1-1944), for which the binding entry in test [1] is “binds”.

With Bmp2k (from UniProt Q91Z96 1-1138), the binding result in test [1] is reported as “binds”.

LARP4 (from UniProt Q8BWW4 1-719): in test [1], the binding result is listed as “binds”.

For LARP5 (from UniProt Q6A0A2 1-741), in test [1], the binding result was “binds”.

As to PCBP1 (from UniProt P60335 1-356), the binding entry in test [1] is “no binding”.

For PCBP2 (from UniProt Q61990 1-362), the binding result in test [1] was “no binding”.

B1: Ubap2l (protein, UniProt Q80X50 1-1107)
chain: MMTSVGTNRARGNWEQPQNQNQTQHKQRPQATAEQIRLAQMISDHNDADFEEKVKQLIDITGKNQDECVIALHDCNGDVNRAINVLLEGNPDTHSWEMVGKKKGVSGQKDGGQTESNEEGKENRDRDRDYSRRRGGPPRRGRGASRGREFRGQENGLDGTKSGGPSGRGTDRGRRGRGRGRGSSGRRGGRFSAQGMGTFNPADYAEPANTDDNYGNSSGNTWNNTGHFEPDDGTRLDFIGVEGSNYPRKFETAPGAWRTATEEWGTEDWNEDLSETKIFTASNVSSVPLPAENVTITAGQRIDLAVLLGKTPSSMENDSSNLDPSQAPSLAQPLVFSNSKQNAISQPASGSTFSHHSMVSMLGKGFGDVGEAKGGSTTGSQFLEQFKTAQALAQLAAQHSQSGSTTTSSWDMGSTTQSPSLVQYDLKSANDSTVHSPFTKRQAFTPSSTMMEVFLQEKPPAVATSTAAPPPPSSPLPSKSTSAPQMSPGSSDNQSSSPQPAQQKLKQQKKKTSLTSKIPALAVEMPGSADISGLNLQFGALQFGSEPVLSDYESTPTTSASSSQAPSSLYTSTASESSSTVSSNQSQESGYQSGPIQSTTYTSQNNAQGPLYEQRSTQTRRYPSSISSSPQKDLTQAKNGFSSVQATQLQTTQSVEGATGSAVKSESPSTSSIPSLNETVPAASLLTTANQHSSSLSGLSHTEEIPNTTTTQHSSALSTQQNTLSSSTSSGRTSTSTLLHTSVESEANLHSSSSTFSTTSSTVSAPPPVVSVSSSLNSGSSLGLSLGSNSTVTASTRSSVATTSGKAPPNLPPGVPPLLPNPYIMAPGLLHAYPPQVYGYDDLQMLQTRFPLDYYSIPFPTPTTPLTGRDGSLASNPYSGDLTKFGRGDASSPAPATTLAQPQQNQTQTHHTTQQTFLNPALPPGYSYTSLPYYTGVPGLPSTFQYGPAVFPVAPTSSKQHGVNVSVNASATPFQQPSGYGSHGYNTGVSVTSSNTGVPDISGSVYSKTQQSFEKQGFHSGTPAASFNLPSALGSGGPINPATAAAYPPAPFMHILTPHQQPHSQILHHHLQQDGQTGSGQRSQTSSIPQKPQTNKSAYNSYSWGAN
As for B1, in test [2], the binding entry was “binds”.

B2: Ubap2 (protein, UniProt Q91VX2 1-1132)
chain: MMTSVSNDRCRGAREKPQMPTAHAAQSQKQVVQATAEQMRLAQVIFDKNDSDFEAKVKQLMEVTGKNQDECIVALHDCNGDVNKAINILLEGNSDTTSWETVGGKKKNFGRESSENKENREKRTEREASRGRGTNNRKGRGGNRVREFKGEENGIDCSQGDKPAERGKRARGRGFGRGRGRGTGRFSAQSMGTFNPADYSESMSTDGCGTKLAVWEAAQNGTDEGPEGLAKSHSMSQEPPSKSSYGLKGAWKNSVEEWTTEDWTEDLSETKVFTASSAPAENHVTPGHSIDLVALLHKPAPPTQATEVNSFETSQQQGFGQALVFTNSQHNNQMAPGTANSTSASSYSPQSLSSVLGSGFGELPQSNMVNISNSQILDKLKPPGLSPFPAASSAQQNDTASPPATTAAWDLKPSAPQPSVLSRLDFKSQPEPSPVLSQLSQRQQHQTQAVSVPPPGLESFSSLAKPRESTAGDGPSTVSRLLQLPNMTVENIVSAHQPQPKHIKLPKRRVPPASKVPVSAVEMPGSSDVTGLNVQFGALEFGSEPSLSEFGSAASASENSNQIPISLYPKSLSEPLNASFPMTSAVQSSTYTTSVVTSSTLTSSALSSTSPVTTSSSYDQSSVHTRIAYQSSASPPDSAPGSVANGHGGGRSQHTVDTTSSVPAPKKTDPSALPSVSTLPGPASCTALLPSSAQHTATLPSLTPAAAELSSSPLSQLSSSLSGHQNSMTSAHATRSTSTPHTHASVESTASSAAFSAAATSAPSAPSSGVVLPGSMSTVSSLCLGGTTVSVPSSSTRATALVTSGKAPPNLPQGVPPLLHNQYLVGPGGLLPAYPIYGYDELQMLQSRLPMDYYGIPFAAPTALASRDGNLANNPYSGDVTKFGRGDSASPAPPTTPAQAQQSQSQTHHTAQQPFLNPGLPPGYSYTGLPYYTGVPSAFQYGPTMFVPPTSAKQHGVALSTPPTPFQQASGYGQHAYSTGYDDLTQGTAAGDYTKGGYGGSSQAPNKSTGSGPGKGVSVSSGTGLPDMTGSVYNKTQTFDKQGFHAGTPPPFSLPSALGSTGPLAPAAAPGYAPAPFLHIMPAHQQPHSQLLHHHLQQDAPSGSGQRSQPSSLQPKSQASKPTYGSAPYWTN
Consider B2, for which the binding entry in test [2] was “binds”.

B3: Otud4 (protein, UniProt B2RRE7 1-1107)
chain: MEAAVGAPDGVDQGGVGPLEDETPMDAYLRKLGLYRKLVAKDGSCLFRAVAEQVLHSQSRHVEVRMACIRYLRENREKFEAFIEGSFEEYLKRLENPQEWVGQVEISALSLMYRKDFVIYQEPNVSPSHVTENNFPEKVLLCFSNGNHYDIVYPITYKDSSAMCQSLLYELLYEKVFKTDVSKIMMGLEASEVAEESNSEISDSEDDSCKSKSTAATDVNGFKPSGSENPKNNGNSADLPLSRKVLKSLNPAVYRNVEYEIWLKSKQAQQKRDYSIAAGLQYEVGDKCHQVRLDHNGKLSNADIHGVHSENGLVLSEELGKKHTPKNLKPPPPESWNTVSGKKMKKPNSGQNFHSDTDYRGPKNLNKPIKAPSALPPRLQHPSSGVRQHAFSSHSTGSQSQKSSSEHKNLSRMPSQITRKPDRERAEDFDHVSRESYYFGLSPEERREKQAIEESRLLYEIQNRDEQAFPALSSSSVSQSPSQNSNACVPRKSSHARDRKGSMRRADAEERKDKDSLRGHTHVDKKPEPSTLEISDDKCTRVSSPSKSKKECPSPVEQKPAEHIPLSNPAPLLVSPEVHLTPAVPSLPATVPAWPSEPTTFGPTGVPAQIPILSVTQTTGPDAAVSQAHLTPSPVPVSIQAVNQPLMPLPQTMSLYQDPLYPGFPCSEKGDRAIAPPYSLCQTGEDLPKDKNILRFFFNLGVKAYSCPMWAPHSYLYPLHQAYMAACRMYPKVPVPVYPQNTWFQEAPPAQSESDCPCTDAHYSLHPEASVNGQMPQAEMGPPAFASPLVIPPSQVSEGHGQLSYQPELESENPGQLLHAEYEESLSGKNMYPQQSFGPNPFLGPVPIAPPFFPHVWYGYPFQGFVENPVMRQNIVLPPDDKGELDLPLENLDLSKECDSVSAVDEFPDARVEGAHSLSAASVSSKHEGRVEQSSQTRKADIDLASGSSAVEGKGHPPTQILNREREPGSAEPEPKRTIQSLKEKPEKVKDPKTAADVVSPGANSVDRLQRPKEESSEDENEVSNILRSGRSKQFYNQTYGSRKYKSDWGSSGRGGYQHVRGEESWKGQPNRSRDEGYQYHRHVRGRPYRGDRRRSGMGDGHRGQHT
Consider B3, for which the binding entry in test [2] is “binds”.
